Patent publication US20120004129A1, “BIOMARKERS FOR INHIBITORS WITH ANTI-ANGIOGENIC ACTIVITY” (Merck Patent GmbH, priority 2008, published 2012)
For at least one compound, name, drawing or mass did not settle the structure.

Experiments:
STC-1 = STC-1 protein in HUVEC supernatants by Western blotting; assay type: cell-based, human; details: kinase inhibitors, vitronectin-coated dishes, 6 h to 48 h
Method: (§1) Since secreted biomarkers are relevant, the individual candidates were analysed in supernatants of integrin-inhibitor treated cells. HUVEC were treated either DI-17E6 or cilengitide. After different times, culture supernatants were collected and analysed for different biomarker candidates by Western blotting, ELISA or Luminex. Drug-induced biomarker regulation was evaluated in comparison to control cells.
Culture supernatants were collected analysed for STC-1 by Western blotting. […] B) Regulation of STC-1 in response to cilengitide (FIG. 4).
(§2) HUVECs were cultured o/n in vitronectin-coated dishes and incubated with different concentration of Sutent or Sorafenib for 6 h to 48 h. Culture supernatants were collected analysed for STC-1 by Western blotting. A) Regulation of STC-1 in response to Sutent. B) Regulation of STC-1 in response to Sorafenib (FIG. 10).

IL-8 = IL-8 in HUVEC supernatants by Luminex; assay type: cell-based, human; details: kinase inhibitors, vitronectin-coated dishes, 6 h to 48 h
Method: as §1
Culture supernatants were collected analysed for IL-8 by Luminex. […] B) Regulation of IL-8 in response to cilengitide (FIG. 6).
as §2, with “IL-8” for “STC-1”, “Luminex.” for “Western blotting.”, “12).” for “10).”

EDN1 = EDN1 in HUVEC supernatants by ELISA; assay type: cell-based, human; details: kinase inhibitors, vitronectin-coated dishes, 6 h to 48 h
Method: as §1
Culture supernatants were collected analysed for EDN1 by ELISA. […] B) Regulation of EDN1 in response to cilengitide (FIG. 8).
as §2, with “EDN1” for “STC-1”, “ELISA.” for “Western blotting.”, “11).” for “10).”

[1] = tested on: models of colon cancer, non-small-cell lung cancer, melanoma, renal carcinoma, and squamous cell carcinoma; details: associated with inhibition of VEGFR and PDGFR phosphorylation; cited from earlier work

## CCN(CC)CCNC(=O)c1c(C)[nH]c(/C=C2\C(=O)Nc3ccc(F)cc32)c1C [Sunitinib]
STC-1
  STC-1 protein level in HUVEC supernatants: down-regulated
IL-8
  IL-8 level in HUVEC supernatants: up-regulation
EDN1
  EDN1 level in HUVEC supernatants: up-regulated
[1]
  antitumor activity in preclinical studies: tumor regression
